Counter-ions that a name gives are not always drawn. The list shows a part of the results. Hit calls seldom repeat between salt and free forms of one compound.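 In K562 cells expressing nanoluciferase-fused kinases, luminescence was recorded at 4 h intervals between 2 and 18 h, normalized as percent of control with DMSO at 100% and a positive control at 0%. A significant (2 sigma) signal drop marks a time point as decreased. The authors' rule for a hit is not shown and takes in more than the number of time points.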
Experiments:
Assay in all cases: number of time points (of 5) at which kinase-Nluc abundance scored as decreased, DMSO-normalised (count); higher = more persistent destabilization
Conditions in all cases: K562; 2-18 h
CAMK2A = CAMK2A (UniProt Q9UQM7)
CAMK2G = CAMK2G (UniProt Q13555)
CDK10 = CDK10 (UniProt Q15131)
CDK2 = CDK2 (UniProt P24941)
CDK3 = CDK3 (UniProt Q00526)
CDK5 = CDK5 (UniProt Q00535)
CDK6 = CDK6 (UniProt Q00534)
CHEK2 = CHEK2 (UniProt O96017)
CSF1R = CSF1R (UniProt P07333)
CSK = CSK (UniProt P41240)

Sequences of proteins named here, by UniProt entry; tags and fusion partners are left off. A change or cut given only in a name is not applied to a line headed by its entry.
UniProt Q9UQM7, whole entry: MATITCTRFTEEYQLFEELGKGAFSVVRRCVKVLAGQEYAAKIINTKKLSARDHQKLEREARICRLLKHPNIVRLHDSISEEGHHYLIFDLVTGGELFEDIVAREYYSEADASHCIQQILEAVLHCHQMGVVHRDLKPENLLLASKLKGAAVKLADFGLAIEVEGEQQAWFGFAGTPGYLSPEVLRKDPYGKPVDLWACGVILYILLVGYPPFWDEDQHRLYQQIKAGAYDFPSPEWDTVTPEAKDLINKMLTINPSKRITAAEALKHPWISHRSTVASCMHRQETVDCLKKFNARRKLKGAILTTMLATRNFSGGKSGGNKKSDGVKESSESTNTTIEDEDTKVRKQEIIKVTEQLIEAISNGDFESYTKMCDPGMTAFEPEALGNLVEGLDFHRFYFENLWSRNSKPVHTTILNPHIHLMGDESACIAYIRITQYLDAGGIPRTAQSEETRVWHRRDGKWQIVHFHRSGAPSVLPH
UniProt Q13555: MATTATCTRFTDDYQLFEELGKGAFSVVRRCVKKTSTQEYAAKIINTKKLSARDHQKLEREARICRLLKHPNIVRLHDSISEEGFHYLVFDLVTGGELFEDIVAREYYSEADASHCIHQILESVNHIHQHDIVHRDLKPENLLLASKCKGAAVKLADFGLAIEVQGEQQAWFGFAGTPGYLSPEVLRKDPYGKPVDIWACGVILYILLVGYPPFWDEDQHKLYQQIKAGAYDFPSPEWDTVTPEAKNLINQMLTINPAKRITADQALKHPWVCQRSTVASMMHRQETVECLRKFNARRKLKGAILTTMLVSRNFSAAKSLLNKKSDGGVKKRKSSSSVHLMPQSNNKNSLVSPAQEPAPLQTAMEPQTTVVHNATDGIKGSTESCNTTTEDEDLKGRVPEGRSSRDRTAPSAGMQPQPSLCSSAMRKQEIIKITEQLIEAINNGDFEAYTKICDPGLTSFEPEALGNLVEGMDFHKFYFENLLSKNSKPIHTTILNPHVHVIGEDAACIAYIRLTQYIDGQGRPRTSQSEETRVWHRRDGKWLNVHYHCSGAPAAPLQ
UniProt Q15131: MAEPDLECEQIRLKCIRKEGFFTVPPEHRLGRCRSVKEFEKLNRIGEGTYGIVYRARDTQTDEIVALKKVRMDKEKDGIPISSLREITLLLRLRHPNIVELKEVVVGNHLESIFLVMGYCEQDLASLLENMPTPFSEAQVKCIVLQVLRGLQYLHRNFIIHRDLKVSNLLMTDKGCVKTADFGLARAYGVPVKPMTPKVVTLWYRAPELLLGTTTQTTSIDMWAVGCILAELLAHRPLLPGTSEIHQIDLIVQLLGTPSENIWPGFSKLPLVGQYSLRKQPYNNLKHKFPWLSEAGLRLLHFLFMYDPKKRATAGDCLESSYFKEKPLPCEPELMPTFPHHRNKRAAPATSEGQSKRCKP
UniProt Q00526: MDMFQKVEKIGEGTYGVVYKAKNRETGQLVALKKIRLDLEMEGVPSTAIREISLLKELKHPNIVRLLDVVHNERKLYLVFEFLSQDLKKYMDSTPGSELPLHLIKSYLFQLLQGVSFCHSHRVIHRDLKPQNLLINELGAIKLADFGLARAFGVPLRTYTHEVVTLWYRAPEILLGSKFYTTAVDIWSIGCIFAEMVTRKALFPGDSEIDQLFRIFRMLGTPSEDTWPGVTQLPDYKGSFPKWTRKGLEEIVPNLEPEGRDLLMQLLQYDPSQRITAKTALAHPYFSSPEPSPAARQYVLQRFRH
UniProt Q00535, whole entry, looked up: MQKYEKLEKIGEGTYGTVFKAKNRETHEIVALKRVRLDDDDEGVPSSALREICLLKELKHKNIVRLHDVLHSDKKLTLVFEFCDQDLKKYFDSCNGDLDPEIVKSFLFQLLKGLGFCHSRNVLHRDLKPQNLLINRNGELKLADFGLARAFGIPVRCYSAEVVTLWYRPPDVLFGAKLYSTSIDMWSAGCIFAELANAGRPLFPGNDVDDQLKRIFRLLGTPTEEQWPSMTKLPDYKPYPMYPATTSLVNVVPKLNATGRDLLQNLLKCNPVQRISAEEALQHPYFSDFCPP
UniProt Q00534, whole entry: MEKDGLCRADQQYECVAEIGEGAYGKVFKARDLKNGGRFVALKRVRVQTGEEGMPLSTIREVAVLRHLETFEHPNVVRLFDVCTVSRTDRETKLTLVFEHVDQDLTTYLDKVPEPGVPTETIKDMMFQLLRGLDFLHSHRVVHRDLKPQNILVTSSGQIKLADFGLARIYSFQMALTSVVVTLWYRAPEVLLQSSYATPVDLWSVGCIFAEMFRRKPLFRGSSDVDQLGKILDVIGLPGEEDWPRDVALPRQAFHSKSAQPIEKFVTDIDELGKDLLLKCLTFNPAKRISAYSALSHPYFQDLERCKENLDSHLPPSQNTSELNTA
UniProt O96017, whole entry: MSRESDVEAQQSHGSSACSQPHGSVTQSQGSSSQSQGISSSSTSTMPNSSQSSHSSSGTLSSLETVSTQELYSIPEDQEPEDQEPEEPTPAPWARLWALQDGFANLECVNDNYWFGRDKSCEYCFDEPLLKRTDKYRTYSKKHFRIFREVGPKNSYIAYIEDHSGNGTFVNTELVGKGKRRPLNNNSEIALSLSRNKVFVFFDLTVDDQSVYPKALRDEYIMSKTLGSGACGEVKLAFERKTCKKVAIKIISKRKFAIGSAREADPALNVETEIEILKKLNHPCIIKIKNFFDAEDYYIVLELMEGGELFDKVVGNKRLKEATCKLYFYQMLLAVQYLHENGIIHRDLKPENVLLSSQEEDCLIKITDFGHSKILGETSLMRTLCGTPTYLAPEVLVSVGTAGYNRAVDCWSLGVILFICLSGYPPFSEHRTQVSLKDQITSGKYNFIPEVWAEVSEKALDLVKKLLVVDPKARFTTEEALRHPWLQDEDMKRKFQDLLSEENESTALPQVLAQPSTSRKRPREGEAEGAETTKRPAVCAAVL
UniProt P07333, whole entry: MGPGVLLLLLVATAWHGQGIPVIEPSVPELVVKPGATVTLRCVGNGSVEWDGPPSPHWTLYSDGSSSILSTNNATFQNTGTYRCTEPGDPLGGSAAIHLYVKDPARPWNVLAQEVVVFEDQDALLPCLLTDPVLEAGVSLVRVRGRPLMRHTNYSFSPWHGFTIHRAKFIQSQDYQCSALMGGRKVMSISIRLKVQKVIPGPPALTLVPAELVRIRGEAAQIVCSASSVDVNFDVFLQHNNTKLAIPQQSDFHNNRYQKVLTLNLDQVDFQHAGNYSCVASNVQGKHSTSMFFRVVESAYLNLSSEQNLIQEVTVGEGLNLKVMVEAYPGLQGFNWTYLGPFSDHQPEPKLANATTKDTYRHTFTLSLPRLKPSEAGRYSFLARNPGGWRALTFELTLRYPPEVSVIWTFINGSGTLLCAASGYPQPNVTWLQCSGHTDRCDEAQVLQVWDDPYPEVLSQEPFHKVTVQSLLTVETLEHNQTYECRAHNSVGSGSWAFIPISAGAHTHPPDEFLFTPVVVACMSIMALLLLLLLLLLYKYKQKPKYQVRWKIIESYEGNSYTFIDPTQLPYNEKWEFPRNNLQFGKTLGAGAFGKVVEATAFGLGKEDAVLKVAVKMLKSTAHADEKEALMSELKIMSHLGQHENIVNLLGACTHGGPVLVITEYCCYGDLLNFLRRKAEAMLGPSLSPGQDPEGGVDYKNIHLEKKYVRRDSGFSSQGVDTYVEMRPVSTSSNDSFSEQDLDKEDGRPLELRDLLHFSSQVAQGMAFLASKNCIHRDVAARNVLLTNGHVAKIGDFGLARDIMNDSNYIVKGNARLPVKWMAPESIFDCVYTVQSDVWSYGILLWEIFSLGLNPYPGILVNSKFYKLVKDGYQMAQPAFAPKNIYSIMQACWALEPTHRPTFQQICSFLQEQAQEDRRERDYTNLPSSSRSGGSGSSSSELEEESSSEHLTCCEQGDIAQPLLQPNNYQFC
UniProt P41240: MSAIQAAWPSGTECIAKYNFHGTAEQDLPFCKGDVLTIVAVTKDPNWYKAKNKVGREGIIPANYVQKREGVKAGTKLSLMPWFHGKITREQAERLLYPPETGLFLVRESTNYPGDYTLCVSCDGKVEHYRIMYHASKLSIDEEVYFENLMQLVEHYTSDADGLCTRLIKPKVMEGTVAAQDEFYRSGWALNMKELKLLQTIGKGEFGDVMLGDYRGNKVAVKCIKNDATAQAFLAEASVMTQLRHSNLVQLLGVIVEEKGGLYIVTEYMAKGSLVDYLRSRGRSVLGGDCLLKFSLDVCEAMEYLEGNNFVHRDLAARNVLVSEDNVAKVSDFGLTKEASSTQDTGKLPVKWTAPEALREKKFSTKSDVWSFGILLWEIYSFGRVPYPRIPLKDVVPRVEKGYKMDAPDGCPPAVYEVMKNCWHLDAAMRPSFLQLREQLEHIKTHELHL

Measured: number of time points

COc1ncccc1-c1cnn2ccc(N3CCN(C(=O)OC(C)C)CC3)nc12 (10 µM)
0: all assays above

c1ccc(-c2nc3c(c(-n4ccc5cnccc54)n2)CCC3)nc1 (10 µM)
0: all assays above

CCCCCCCC/C=C\CCCCCCCCCCCC(=O)O [Erucic acid] (10 µM)
0: all assays above

O=c1cc(-c2cccc3c2Sc2ccccc2S3)oc(N2CCOCC2)c1 (10 µM)
0: all assays above

CCc1cncnc1N1CCN(Cc2nc3ccc(C(F)(F)F)cc3[nH]2)CC1 (10 µM)
0: all assays above

Nc1nccc(Oc2ccc(NC(=O)c3c[nH]cc(-c4ccc(F)cc4)c3=O)cc2F)c1Cl (10 µM)
1: CDK6
4: CDK10
5: CSF1R
0: all other assays above

Cc1cc(Nc2ncnc3ccc(-c4ccc(CNCCS(C)(=O)=O)o4)cc23)ccc1Oc1ccn2ncnc2c1 [ARRY-380 (analog )] (2.5 µM)
0: all assays above

CC(C)CCNC(=O)c1ccc2c(c1)nc(Nc1n[nH]c3ccc(-c4ccccc4OC(F)(F)F)cc13)n2C1CCC(O)CC1 (stereo not drawn) [IRAK inhibitor 4 (trans)] (10 µM)
0: all assays above

O=C(NC1CCOCC1)c1ccc(-c2cc(-c3c[nH]nc3-c3ccccn3)ccn2)cc1 (10 µM)
0: all assays above

Cc1cc(C)nc(NS(=O)(=O)c2ccc(NC(=S)NC(=O)COc3ccc(Br)cc3Cl)cc2)n1 (2.5 µM)
0: all assays above

Cc1nn(C)c2c1C(c1ccc(C(F)(F)F)cc1)C(C#N)=C(N)O2 (stereo not given) (10 µM)
0: all assays above

2 neighbouring compounds from above, for reference:
Cc1cc(Nc2ncnc3ccc(-c4ccc(CNCCS(C)(=O)=O)o4)cc23)ccc1Oc1ccn2ncnc2c1 [ARRY-380 (analog )] (2.5 µM)
0: all assays above

CC(C)CCNC(=O)c1ccc2c(c1)nc(Nc1n[nH]c3ccc(-c4ccccc4OC(F)(F)F)cc13)n2C1CCC(O)CC1 (stereo not drawn) [IRAK inhibitor 4 (trans)] (10 µM)
0: all assays above

Later entries

COc1ccc(-c2c(C)nn3c(NCCN4CCOCC4)cc(C)nc23)cc1OC (10 µM)
0: all assays above

COc1cc(N2CCOCC2)ccc1NC(=O)c1csc(-c2cccnc2)n1 [IRAK inhibitor 6] (10 µM)
0: all assays above

CC[C@@](C)(Nc1ccnc(-c2c[nH]c3ncccc23)n1)C(=O)NCC(F)(F)F [Decernotinib] (10 µM)
0: all assays above

Cc1ccc2c(Nc3cccc(Cl)c3F)nccc2c1NC(=O)c1csc2c(N)ncnc12 [Belvarafenib] (10 µM)
1: CSF1R
0: all other assays above

C=CC(=O)Nc1cccc(CNc2nc(Nc3ccc(N4CCN(C)CC4)cc3OC)ncc2Cl)c1 (10 µM)
0: all assays above

NC(=S)n1[nH]c(-c2ccc([N+](=O)[O-])cc2)c(N=Nc2cccc(Cl)c2)c1=O (2.5 µM)
0: all assays above

N#CC(c1ccnc(OCc2ccc(CN3CCOCC3)cc2)n1)c1nc2ccccc2s1 (stereo not given) [Bentamapimod] (2.5 µM)
0: all assays above

c1ccc(-c2nc(=NCCN3CCOCC3)sn2-c2ccccc2)cc1 [VP3.15 (dihydrobromide)] (10 µM)
0: all assays above

Nc1c(C(=O)NCc2ccc(C(=O)NCCCC3CCCCC3)cc2)cnn1-c1ccccc1 (2.5 µM)
0: all assays above

Cn1cc(-c2c[nH]c3ncnc(N4CCOCC4)c23)cc1C#N (10 µM)
0: all assays above

CC(C)C[C@@H](C(=O)Nc1ccn(C[C@@H](O)CO)n1)N1CC(Oc2ccccc2Cl)=CC1=O [Dorzagliatin] (10 µM)
0: all assays above

Cn1cc(C2=C(c3cccc(N)c3)C(=O)NC2=O)c2ccccc21 (10 µM)
0: all assays above

CCc1cccc(CC)c1NC(=O)N1Cc2[nH]nc(NC(=O)c3ccc(N4CCN(C)CC4)cc3)c2C1 (2.5 µM)
2: CSF1R
1: CDK10 | CHEK2
3: CAMK2G
0: all other assays above

O[C@@H]1CO[C@H]2[C@@H]1OC[C@H]2Oc1nc2nc(-c3ccc(-c4ccccc4)cc3)c(Cl)cc2[nH]1 (10 µM)
0: all assays above

C=CC(=O)Nc1cccc(-c2cccc3cnc(Nc4ccc(N5CCN(CCO)CC5)c(F)c4F)nc23)c1 [Olafertinib] (2.5 µM)
0: all assays above

O=c1cc(N2CCOCC2)nc2c3ccccc3ccn12 [Compound 401] (10 µM)
0: all assays above

CC(C)=CCc1c(-c2ccc(O)cc2O)oc2c3c(cc(O)c2c1=O)OC(C)(C)C=C3 [Morusin] (2.5 µM)
0: all assays above

O=C(N[C@@H](C1CC1)C(F)(F)F)c1cc(-c2cnn3cc(-c4ccc(F)cc4)cnc23)cs1 (10 µM)
0: all assays above

CN(C)c1nc2c(Br)c(Br)c(Br)c(Br)c2[nH]1 (10 µM)
0: all assays above

CCc1ccc(OCC(=O)Nc2ccc(F)c([N+](=O)[O-])c2)cc1 (10 µM)
0: all assays above

O=Nc1c2[nH]c3ccccc3nc-2c2ccccc12 [IQ-1S (free acid)] (2.5 µM)
0: all assays above

CC/C(=N\NC(=O)c1ccnc(NCCCN2CCOCC2)c1)c1ccc(Cl)cc1O (2.5 µM)
0: all assays above

Source: the supplement of paper PMC12823440, “Inhibitors supercharge kinase turnover through native proteolytic circuits” (Nature, 2025)
